No constants are given. Whether binding was seen depends on the method and setting. In cells and extracts the contact can be indirect. Here binding means that the protein was enriched with, or labelled near, the bait; the list need not be complete.
Columns and labels:
[1] = molecular target: SARS-CoV-2 Nsp6, Strep-tagged (SARS-CoV-2) (UniProt P0DTD1); test: affinity purification with mass spectrometry
[2] = molecular target: SARS-CoV-2 Nsp8, Strep-tagged (SARS-CoV-2) (UniProt P0DTD1); test: affinity purification with mass spectrometry

“ATPase subunit ATP5A1 (from UniProt P25705 44-553)” was tested. Which binding [1] did it give?
The binding was “binds”.

And the binding [2]?
The binding was “binds”.

Which binding [1] does the source give for “ATPase subunit ATP5B (from UniProt P06576 48-529)” here?
The binding was “binds”.

And the binding [2]?
The binding was “binds”.

— PMC10500938
